PubChem BioAssay AID493246, Drosophila RNAi Screening Center, 2011

- Screen: 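Genes fly cells need to grow and stay alive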 (primary screen)
- System: Drosophila Kc and S2R+ cells
- Reagents: long dsRNA against Drosophila genes
- Measured: 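Cell number per well after knock-down, printed as raw plate values; calls were based on per-plate z-scores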
- Direction: Kc cell number and S2R+ cell number: higher = more cells remaining
- Active means: 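Counted as a hit if cell number falls by a z-score of at least 3 within its plate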
The deposit covers about 21,000 reagents; shown is a random part of those with a known target gene and a result. In the full data, 429 (2%) got an active call. 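Values are raw and not normalised between plates; calls rest on per-plate z-scores that were not deposited.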 Unmarked entries are inactive. The record does not give: the amount of reagent, the time to read-out.

CG8401 [DRSC07165] | Kc cell number, rep 1 = 1.36e6; Kc cell number, rep 2 = 1.41e6; S2R+ cell number, rep 1 = 1.12e6; S2R+ cell number, rep 2 = 1.16e6
Vm26Aa [DRSC03472] | Kc cell number, rep 1 = 1.61e6; Kc cell number, rep 2 = 1.27e6; S2R+ cell number, rep 1 = 1.12e6; S2R+ cell number, rep 2 = 1.28e6
sand [DRSC07245] | Kc cell number, rep 1 = 1.56e6; Kc cell number, rep 2 = 1.55e6; S2R+ cell number, rep 1 = 1.30e6; S2R+ cell number, rep 2 = 1.39e6
Pp2C1 [DRSC18699] | Kc cell number, rep 1 = 6.34e5; S2R+ cell number, rep 1 = 7.77e5
CG13643 [DRSC14641] | Kc cell number, rep 1 = 1.53e6; Kc cell number, rep 2 = 1.51e6; S2R+ cell number, rep 1 = 9.73e5; S2R+ cell number, rep 2 = 1.04e6
CG13643 [DRSC14642] | Kc cell number, rep 1 = 1.52e6; Kc cell number, rep 2 = 1.55e6; S2R+ cell number, rep 1 = 9.19e5; S2R+ cell number, rep 2 = 1.01e6
CG7409 [DRSC10842] | Kc cell number, rep 1 = 1.26e6; Kc cell number, rep 2 = 1.45e6; S2R+ cell number, rep 1 = 1.15e6; S2R+ cell number, rep 2 = 1.18e6
CG9922 [DRSC16579] | Kc cell number, rep 1 = 1.19e6; Kc cell number, rep 2 = 1.35e6; S2R+ cell number, rep 1 = 1.14e6; S2R+ cell number, rep 2 = 1.27e6
Cyp309a1 [DRSC00747] | Kc cell number, rep 1 = 1.64e6; Kc cell number, rep 2 = 1.71e6; S2R+ cell number, rep 1 = 1.10e6; S2R+ cell number, rep 2 = 1.23e6

Ordered by “Kc cell number, rep 2” (high to low): 2 of the entries above.
CG7409 [DRSC10842] | Kc cell number, rep 1 = 1.26e6; Kc cell number, rep 2 = 1.45e6; S2R+ cell number, rep 1 = 1.15e6; S2R+ cell number, rep 2 = 1.18e6
CG9922 [DRSC16579] | Kc cell number, rep 1 = 1.19e6; Kc cell number, rep 2 = 1.35e6; S2R+ cell number, rep 1 = 1.14e6; S2R+ cell number, rep 2 = 1.27e6

Further reagents:
TyrRS-m [DRSC04286] | Kc cell number, rep 1 = 1.31e6; Kc cell number, rep 2 = 1.39e6; S2R+ cell number, rep 1 = 1.03e6; S2R+ cell number, rep 2 = 1.05e6
CG32652 (retired record) [DRSC18942] | Kc cell number, rep 1 = 1.40e6; Kc cell number, rep 2 = 1.51e6; S2R+ cell number, rep 1 = 1.09e6; S2R+ cell number, rep 2 = 1.21e6
CG5783 [DRSC02894] | Kc cell number, rep 1 = 1.78e6; Kc cell number, rep 2 = 1.82e6; S2R+ cell number, rep 1 = 1.37e6; S2R+ cell number, rep 2 = 1.57e6
ave [DRSC05502] | Kc cell number, rep 1 = 1.42e6; Kc cell number, rep 2 = 1.39e6; S2R+ cell number, rep 1 = 1.01e6; S2R+ cell number, rep 2 = 1.14e6
Bap111 [DRSC18419] | Kc cell number, rep 1 = 1.32e6; Kc cell number, rep 2 = 1.39e6; S2R+ cell number, rep 1 = 1.12e6; S2R+ cell number, rep 2 = 1.31e6
CG9101 [DRSC20152] | Kc cell number, rep 1 = 1.54e6; Kc cell number, rep 2 = 1.55e6; S2R+ cell number, rep 1 = 1.02e6; S2R+ cell number, rep 2 = 1.17e6
CG33124 [DRSC00298] | Kc cell number, rep 1 = 1.78e6; Kc cell number, rep 2 = 1.78e6; S2R+ cell number, rep 1 = 1.10e6; S2R+ cell number, rep 2 = 1.16e6
Tsp42Ef [DRSC06191] | Kc cell number, rep 1 = 1.55e6; Kc cell number, rep 2 = 1.64e6; S2R+ cell number, rep 1 = 1.20e6; S2R+ cell number, rep 2 = 1.34e6
PpV [DRSC18700] | Kc cell number, rep 1 = 1.43e6; Kc cell number, rep 2 = 1.44e6; S2R+ cell number, rep 1 = 1.02e6; S2R+ cell number, rep 2 = 1.13e6
GstE5 [DRSC06675] | Kc cell number, rep 1 = 1.54e6; Kc cell number, rep 2 = 1.61e6; S2R+ cell number, rep 1 = 1.13e6; S2R+ cell number, rep 2 = 1.26e6
Rpt3 [DRSC20283] | Kc cell number, rep 1 = 9.13e5 (active); Kc cell number, rep 2 = 1.04e6; S2R+ cell number, rep 1 = 6.36e5; S2R+ cell number, rep 2 = 7.91e5
TwdlR [DRSC14736] | Kc cell number, rep 1 = 1.65e6; Kc cell number, rep 2 = 1.75e6; S2R+ cell number, rep 1 = 9.90e5; S2R+ cell number, rep 2 = 1.19e6
